Test results reported in patent US10174202B2, “Dyes with phosphinic acid, phosphinate, phosphonate and phosphonamidate substituents as auxochromic groups and methods for preparing the same” (Max-Planck-Gesellschaft zur Foerderung der Wissenschaften …, priority 2017, dated 2019).
“And” between values parts separate entries of the source, which are not always exact repeats. Identical values can stand only once. At least one structure is not confirmed: it was looked up by name or label, or the drawing left a doubt. Marks after values point to notes of the source that are not given here.

Columns and labels:
[1] = Absorption spectroscopy (UV/Vis); type: physicochemical
Experimental: (§1) Absorption spectra were recorded with a Varian Cary 4000 UV-Vis double-beam spectrophotometer (Agilent Technologies, USA). For the determination of the absorption spectra, quartz cells with a 1 cm path length were used. Emission spectra and fluorescence quantum yield were obtained on a Quantaurus-QY Absolute PL quantum yield spectrometer C11347 (Hamamatsu Photonics, Japan) or on a Varian Cary Eclipse fluorescence spectrometer (Agilent Technologies, USA).

[2] = Emission spectra and fluorescence quantum yield; type: physicochemical
Experimental: as §1

SMILES: CC(C)OP(=O)(OC(C)C)C1=C2C=CC(=[N+](C)C)C=C2C(C)(C)c2cc(N(C)C)ccc21 [Compound 24, 9-(Diisopropoxyphosphoryl)-3,6-bis(dimethylamino)-10,10-dimethyl-9,10-dihydro-anthracenylium trifluoromethanesulfonate]
- Absorption max. ([1]; in acetonitrile): 694 nm
- ε at absorption max. ([1]; in acetonitrile): 37946 M⁻¹ cm⁻¹ and 37900 M⁻¹ cm⁻¹
- Emission max. ([2]; in acetonitrile): 779 nm
- QY (fluorescence quantum yield, Φfl) ([2]; in acetonitrile): 0.03
- Stokes shift ([2]; in acetonitrile): 85^a nm

SMILES: C=CCOP(=O)(C1=C2C=CC(=[N+](C)C)C=C2C(C)(C)c2cc(N(C)C)ccc21)N(C(C)C)C(C)C (stereo not drawn) [Compound 25, 9-[(Allyloxy)(diisopropylamino)phosphoryl]-3,6-bis(dimethylamino)-10,10-dimethyl-9,10-dihydroanthracenylium trifluoromethanesulfonate]
- Absorption max. ([1]; in acetonitrile): 698 nm
- ε at absorption max. ([1]; in acetonitrile): 40789 M⁻¹ cm⁻¹ and 40800 M⁻¹ cm⁻¹
- Absorption max. ([1]; in aq. PBS, pH 7.4): 710 nm
- ε at absorption max. ([1]; in aq. PBS, pH 7.4): 16700 M⁻¹ cm⁻¹
- Emission max. ([2]; in acetonitrile): 775 nm
- QY (fluorescence quantum yield, Φfl) ([2]; in acetonitrile): 0.26
- Stokes shift ([2]; in acetonitrile): 77 nm
- Emission max. ([2]; in aq. PBS, pH 7.4): 783 nm
- QY (fluorescence quantum yield, Φfl) ([2]; in aq. PBS, pH 7.4): 0.19
- Stokes shift ([2]; in aq. PBS, pH 7.4): 73 nm
